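Enzyme assay of CoaBC with a phosphate dye (Biomol Green) read at 650 nm. Target: Coenzyme A biosynthesis protein CoaBC, Mycobacterium tuberculosis (UniProt P9WNZ1). Compounds at 30 µM. Direction is inferred from only a few compounds that gave an IC50; most scored high, so higher reads as stronger inhibition. Most strong results did not repeat in a second test. Of about 67,000 compounds tested this way, about 40 (0.06%) reached 50% or more in at least one test.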

Sequences of proteins named here, by UniProt entry; tags and fusion partners are left off.
UniProt P9WNZ1, whole entry: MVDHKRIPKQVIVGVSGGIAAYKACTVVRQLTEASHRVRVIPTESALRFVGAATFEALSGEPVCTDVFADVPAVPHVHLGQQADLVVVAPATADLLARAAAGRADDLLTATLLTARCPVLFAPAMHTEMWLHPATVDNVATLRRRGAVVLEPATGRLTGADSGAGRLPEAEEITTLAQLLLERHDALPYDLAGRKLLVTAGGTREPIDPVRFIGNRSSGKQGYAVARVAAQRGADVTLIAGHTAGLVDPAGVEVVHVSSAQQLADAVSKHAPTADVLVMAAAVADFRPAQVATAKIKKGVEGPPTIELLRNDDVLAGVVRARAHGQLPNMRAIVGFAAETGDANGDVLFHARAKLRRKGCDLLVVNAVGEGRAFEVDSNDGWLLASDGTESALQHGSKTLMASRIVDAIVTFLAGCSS

Values are the deposited “Percent Effect”, in %.
The controls that fix the scale are not given in the record; negative values are as filed.
The compounds are a random part of those screened.

SMILES,effect
CCN(CC)S(=O)(=O)N(Cc1cccc(C)c1)Cc1ccccn1,-0.6889%
Cc1oncc1C(=O)NCc1ccnc(OCC(F)(F)F)c1,-1.394%
CCOCC(=O)N1CC[C@H]2[C@@H]1CCC(=O)N2Cc1csc(C)n1,4.569%
CCN(CC)C(=O)c1cnc(Sc2nccn2C)c(Cl)c1,-3.226%
Cc1cccc(C(C(=O)N(C)CCc2cn[nH]c2)N(C)C)c1 (configuration not stated),-0.123%
Fc1ccccc1Cc1noc(CN2CCC(C3CCCCC3)C2)n1 (configuration not stated),3.807%
Cc1cn(Cc2ccccc2)nc1N,-0.8589%
Nc1nccc(N2CCC(Cc3ccccc3Cl)(C(=O)O)CC2)n1,5.33%
CCc1nnsc1C(=O)N1CCCN(Cc2ccccc2)CC1,-10.15%
Cc1cc(C(=O)NCc2cccnc2N2CCCC(O)C2)c(C)o1 (configuration not stated),0.1266%
O=S(=O)(NCC1OCCc2cn(Cc3ccccn3)nc21)C1CC1 (configuration not stated),10.68%
O=C1C(n2nnc(-c3cccs3)n2)CCN1CC(F)(F)F (configuration not stated),1.394%
O=C1CC(c2ccc(C(F)(F)F)cc2)c2snc(C(=O)O)c2N1 (configuration not stated),9.469%
CCCn1cc(NC(=O)c2ccc(NC(=O)NC3CC3)cc2)ccc1=O,9.339%
COC(C)c1cccc(NC(=O)N(CCC#N)Cc2ccccn2)c1 (configuration not stated),4.925%
Cc1cc(CN2CCCC2c2c(C)nn(C)c2Cl)on1 (configuration not stated),-1.695%
CN1CCC(NC(=O)c2cc(C3CCCCC3)nc3ccccc23)CC1,4.369%
CN(C)C(=O)C1CCN(C2CCN(CC3CC3)CC2)CC1,0.3636%
CCC1CN(C(=O)c2cccc(OCc3cscn3)c2)CCO1 (configuration not stated),4.474%
CC(C)Cc1nc(CN2CCC(NC(=O)c3cccs3)CC2)no1,4.315%
CCS(=O)(=O)CC(=O)NCC1(c2c(F)cccc2F)CCCC1,-7.09%
Cn1cc(C(=O)N2CCN(c3ccc(F)cc3)CC2)ccc1=O,-0.6198%
C[C@@H]1CN(C(=O)Cc2ccsc2)C[C@]12CCN(CCN(C)C)C2=O,0.9412%
CCc1ccc(C(=O)N2CCN(CCS(C)(=O)=O)CC2)o1,0.7979%
CC(C)c1cnc(CN(C)C2CCN(CCc3cnn(C)c3)C2)o1 (configuration not stated),3.133%
O=C(Cn1ccc(=O)c2ccccc21)Nc1cnccc1O,2.161%
O=C(c1ccc(NC2CC2)nc1)N1CCCC(n2ccnc2)C1 (configuration not stated),-1.141%
CCn1ccnc1CN1CCCN(C(=O)Cc2ccc(F)cc2)CC1,-7.507%
Cc1nc2c(c(N3CCCC(CO)C3)n1)CCN(Cc1ccco1)CC2 (configuration not stated),-6.036%
CC(C)CNC(=O)c1cn(C)c(=O)c2ccccc12,-3.682%
COc1ccc2c(=O)n(CC3CCCCN3C)ccc2c1OC (configuration not stated),-1.411%
CCN1CCC(CC(=O)NCCc2nc(C)c(Cl)s2)CC1,-4.12%
c1cnc(N2CC3(CCN(Cc4cccnc4)C3)C2)nc1,0.9009%
NC(=O)CSc1ccccc1NC(=O)CC1C=CCC1 (configuration not stated),4.685%
CC(C(=O)NCCc1ccc2c(c1)OCCO2)n1cncn1 (configuration not stated),4.531%
COCc1nc(C(=O)NS(=O)(=O)c2cc(F)ccc2F)cs1,1.554%
CNCC(=O)N1CCCC(c2cccc(Nc3nc(C)cc(C)n3)n2)C1 (configuration not stated),-9.167%
Cc1cnn(CC(=O)N2CCC(Nc3ccc(C)nn3)CC2)c1,1.279%
Cc1nc(C)n(C2CCCN(C(=O)CCn3ccnn3)C2)n1 (configuration not stated),2.03%
CC(=O)c1cc(CN2C[C@H]3CC[C@@H]2CN(Cc2c(C)noc2C)C3)cs1,-4.091%
O=C(NCCNc1cc(-n2cccc2)ncn1)c1cccs1,1.903%
CCCc1noc(CCC(=O)N2CCCCC2Cn2cc(C)cn2)n1 (configuration not stated),-1.449%
O=C(CN1CCCCC1=O)N1CCC2(CC1)[C@H](O)C[C@@H]2O,7.576%
N#Cc1ccc(CCC(=O)N2CCC(CN3CCOCC3)CC2)cc1,1.942%
Cc1ccc(-c2cc(CN3CCOC(Cn4cncn4)C3)on2)cc1 (configuration not stated),-1.845%
CN(CCO)Cc1nnc(C2CCN(C3CCCCC3)CC2)n1C,-3.125%
Cc1cc(S(=O)(=O)N2CCC(S(C)(=O)=O)C2)ccc1F (configuration not stated),0.361%
CCS(=O)(=O)N1CC[C@H]2C(=O)N(Cc3cccnc3)CCO[C@H]2C1,8.122%
O=C1CCCC2=C1C(c1ccc(Cl)cc1Cl)Nc1nonc1N2 (configuration not stated),0.9206%
Cn1ccnc1S(=O)(=O)C(C(=O)N1CCCCC1)c1ccccc1 (configuration not stated),-13.54%
CCCc1cc(NCc2cc(C)on2)n2nccc2n1,7.692%
Cc1nccn1CCN(C)C(=O)C1CCCN(C2CCOCC2)C1 (configuration not stated),6.277%
CC(=O)Nc1ccc(CN2CCc3[nH]cnc3C2c2nccn2C)cc1 (configuration not stated),10.26%
Cc1ccc(CN2CC[C@H](O)[C@@H](n3ccc(=O)[nH]c3=O)CC2)cc1,0.6196%
CC(CC#N)NC(=O)c1cc(Br)c2c(c1)OCCO2 (configuration not stated),4.302%
Cn1ncc2c1C(COCC1CC1)CN(Cc1cccnc1)C2 (configuration not stated),12.42%
Cc1ncc(CN2CCC(c3nc4cc(Cl)ccc4o3)CC2)s1,0.9185%
COC(=O)c1ccccc1NS(=O)(=O)c1c(C)nn(C)c1C,8.132%

The last 7 entries again:

Cc1nccn1CCN(C)C(=O)C1CCCN(C2CCOCC2)C1 (configuration not stated) gave 6.277%.
CC(=O)Nc1ccc(CN2CCc3[nH]cnc3C2c2nccn2C)cc1 (configuration not stated) gave 10.26%.
Cc1ccc(CN2CC[C@H](O)[C@@H](n3ccc(=O)[nH]c3=O)CC2)cc1 gave 0.6196%.
CC(CC#N)NC(=O)c1cc(Br)c2c(c1)OCCO2 (configuration not stated) gave 4.302%.
Cn1ncc2c1C(COCC1CC1)CN(Cc1cccnc1)C2 (configuration not stated) gave 12.42%.
Cc1ncc(CN2CCC(c3nc4cc(Cl)ccc4o3)CC2)s1 gave 0.9185%.
COC(=O)c1ccccc1NS(=O)(=O)c1c(C)nn(C)c1C gave 8.132%.

Data taken from ChEMBL document CHEMBL3988442, “University of Dundee, Small-Polar-MMV Screening Library” (2021).